PubChem BioAssay AID1347075 (National Center for Advancing Translational Sciences (NCATS), 2019)
Hit rate of the full screen: of about 400,000 compounds, about 5,500 (1.4%) were called active. This list was built around the results that the source calls inconclusive (neither active nor inactive); the mix of calls is not that of the screen. The call rests on the fitted dose curve; in most records, active means well fitted cell-killing curve with a large enough effect; inconclusive means small, poorly fitted or top-dose-only effect, or effect the other way; inactive means flat fitted curve, though single readings scatter. Potencies beside an inconclusive call are fits to weak or partial responses and may not hold up.

experiment: qHTS assay for MDR1-selective chemotherapeutics: Primary screen using the parental adenocarcinoma cell KB-3-1; conditions: KB-3-1 viability, CellTiter-Glo ATP luminescence, 72 h; activity change, negative = cytotoxic: at 46.1 µM (top of the series); further: nearly all actives have a fitted effect of over 60% in size
How it was run: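 Here the drug-naive KB-3-1 line serves as comparator for MDR sub-line selectivity; cells received compound titrations, 72 h at 37 °C, then CellTiter-Glo readout.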
On the % scale 0 is the no-effect control and ±100 the full control effect; potency means the concentration at half of the fitted maximal effect.

**Q.** With `COc1ccc(C(=O)/C=C/C(=O)N(CC(=O)NC2CCCCC2)CC2CCCO2)c(O)c1` (configuration not stated) as the compound, how does the Potency read?
**A.** inconclusive: 23.1 µM [cytotoxic, single point]

**Q.** With `Cc1cccc(NC(=O)c2ccc(N(C)C3CCCCC3)c([N+](=O)[O-])c2)n1` as the compound, how does the Potency read?
**A.** inconclusive: 11.6 µM [cytotoxic, partial curve, poor fit]

**Q.** For `O=C(/C=C/c1ccc2c(c1)OCO2)NCCSCc1ccc(Cl)cc1`, which Potency is on record?
**A.** active: 18.4 µM

**Q.** For `Cc1ccc(OCC(=O)Nc2nc(-c3ccccn3)cs2)c(C)c1`, which “activity change, negative = cytotoxic” value is on record?
**A.** inactive: -2.16%

**Q.** Which Potency does the source give for `CCc1ccc2[nH]c(=O)c(CN(CCN(CC)CC)C(=O)NC3CCCCC3)cc2c1` here?
**A.** inconclusive: 18.4 µM [cytotoxic, partial curve, poor fit]

**Q.** Which “activity change, negative = cytotoxic” value does the source give for `COc1ccc(CN(C)C(=O)c2ccc(COc3ccccc3)cc2)c(OC)c1` here?
**A.** inactive: -9.74%

**Q.** With `COc1ccc(-c2nnc(-c3ccc(N)cc3)o2)cc1` as the compound, how does the “activity change, negative = cytotoxic” value read?
**A.** inactive: 0%

**Q.** For `Cc1ccccc1C(=O)NNC(=S)Nc1cccc(C(F)(F)F)c1`, which Potency is on record?
**A.** inconclusive: 29.1 µM [cytotoxic, single point]

**Q.** For `O=C(NCc1nnc(SCc2ccc(C(F)(F)F)cc2)n1-c1ccccc1)C12CC3CC(CC(C3)C1)C2`, which Potency is on record?
**A.** inconclusive: 29.1 µM [cytotoxic, single point]

**Q.** For `COc1ccccc1Sc1nc(-c2ccccn2)ncc1OC`, which Potency is on record?
**A.** inconclusive: 29.1 µM [cytotoxic, single point]

**Q.** For `COc1ccccc1NC(=O)c1cc(Cl)nnc1Cl`, which Potency is on record?
**A.** active: 23.1 µM

**Q.** For `CSc1ccccc1NC(=O)CN(C)C(=O)Cc1c(F)cccc1Cl`, which “activity change, negative = cytotoxic” value is on record?
**A.** inactive: -0.79%

**Q.** Which Potency does the source give for `Cc1cc(NC(=O)CSc2nc3ccccc3c(=O)n2C2CCCC2)no1` here?
**A.** inconclusive: 0.731 µM [cytotoxic, full curve, poor fit]

**Q.** Which Potency does the source give for `O=C(Nc1ccc(F)cc1)Nc1ccccc1F` here?
**A.** inconclusive: 20.6 µM [cytotoxic, single point]

**Q.** With `Cc1cnc(C(=O)Nc2cccc3cccnc23)cn1` as the compound, how does the Potency read?
**A.** active: 5.17 µM

**Q.** Which Potency does the source give for `CCCC(=O)NC(c1ccc(Cl)cc1Cl)c1ccc2cccnc2c1O` (configuration not stated) here?
**A.** inconclusive: 3.26 µM [cytotoxic, full curve]

**Q.** Which “activity change, negative = cytotoxic” value does the source give for `OC(Cc1cccc(Br)c1)c1ncc(-c2ccccc2C(F)(F)F)[nH]1` (configuration not stated) here?
**A.** inactive: 1.4%

**Q.** With `COc1cccc2[nH]c(C(=O)NCC3CCCO3)cc12` (configuration not stated) as the compound, how does the Potency read?
**A.** inconclusive: 20.6 µM [cytotoxic, single point]

**Q.** With `COc1ccc(C(=O)N/N=C/c2ccc(OC)c(CN3CCN(c4ccc(F)cc4)CC3)c2)cc1` as the compound, how does the Potency read?
**A.** inconclusive: 20.6 µM [rising, single point]

**Q.** For `CSc1ccc(NC(=O)C2(C)CCN2C(=O)c2ccccc2CCc2ccccc2)cc1` (configuration not stated), which Potency is on record?
**A.** inconclusive: 29.1 µM [cytotoxic, single point]

**Q.** For `CCOC(=O)c1c(NC(=O)COC(=O)c2cnccn2)sc(C(=O)NC)c1C`, which Potency is on record?
**A.** inconclusive: 29.1 µM [rising, single point]

**Q.** For `CC1(C)CC(=O)c2c(O)cc(OCC(=O)Nc3ccc(S(N)(=O)=O)cc3)cc2O1`, which “activity change, negative = cytotoxic” value is on record?
**A.** inactive: -6.09%

**Q.** With `CCn1c(SCC(=O)Nc2nc(C)c(C)s2)nnc1-c1cccs1` as the compound, how does the Potency read?
**A.** inconclusive: 1.64 µM [rising, full curve, poor fit]

**Q.** For `CCN(CC)c1ccc(/C=N/NC(=O)c2ccc(Br)o2)cc1`, which Potency is on record?
**A.** inconclusive: 29.1 µM [cytotoxic, single point]

**Q.** For `Cc1ccc(C)c(OCC(=O)Nc2ccc3c(c2)OCO3)c1C`, which Potency is on record?
**A.** active: 8.2 µM

**Q.** Which Potency does the source give for `Nc1ccccc1SC(CC(=O)c1ccccc1)c1ccc([N+](=O)[O-])cc1` (configuration not stated) here?
**A.** active: 20.6 µM

**Q.** With `O=C(/C=C/c1ccccc1)Nc1ccc(CN2CCOCC2)cc1` as the compound, how does the “activity change, negative = cytotoxic” value read?
**A.** inactive: -1.3%

**Q.** With `Cn1nc(C(C)(C)C)cc1C(=O)NCc1ccc(N2CCCC2=O)cc1` as the compound, how does the Potency read?
**A.** active: 0.651 µM

**Q.** For `CCN(CC)c1ccc(C(=O)N/N=C(\C)c2ccc(O)cc2)cc1`, which Potency is on record?
**A.** active: 13 µM

**Q.** For `Cc1cc(=O)oc(C)c1C(=O)NCC1COc2ccccc2O1` (configuration not stated), which Potency is on record?
**A.** inconclusive: 29.1 µM [cytotoxic, single point]

**Q.** For `O=C(NC(c1ccccc1)c1ccc2ccccc2n1)C1CCN(Cc2cccc(C(F)(F)F)c2)CC1` (configuration not stated), which Potency is on record?
**A.** inconclusive: 29.1 µM [cytotoxic, single point]

**Q.** Which “activity change, negative = cytotoxic” value does the source give for `C1=Nc2ccccc2CN1c1ccccc1` here?
**A.** inactive: -3.51%

**Q.** With `COc1ccc(-c2oc3c(c2C(=O)OCCCO)C(OCCO)CCC3)cc1` (configuration not stated) as the compound, how does the Potency read?
**A.** inconclusive: 23.1 µM [rising, single point]

**Q.** For `COc1ccc(NS(=O)(=O)c2ccc(/C=C/C(=O)O)cc2)cc1S(=O)(=O)N1CCOCC1`, which “activity change, negative = cytotoxic” value is on record?
**A.** inactive: 6.22%

**Q.** With `O=C(Nc1ccn(Cc2c(F)c(F)c(F)c(F)c2F)n1)c1ccc(COc2ccccc2Cl)cc1` as the compound, how does the Potency read?
**A.** inconclusive: 29.1 µM [cytotoxic, partial curve, poor fit]

**Q.** Which Potency does the source give for `Cc1ccc2cccc(NC(=O)c3cccc4c(Cl)cccc34)c2n1` here?
**A.** inconclusive: 29.1 µM [cytotoxic, single point]

**Q.** Which “activity change, negative = cytotoxic” value does the source give for `CC12CCC3c4ccc(O)cc4CCC3C1CC(O)C2O` (configuration not stated) here?
**A.** inactive: -4.33%

**Q.** Which Potency does the source give for `Cc1cc(C)c2nc(N(CCCN(C)C)C(=O)c3ccc4c(c3)OCCO4)sc2c1` here?
**A.** inconclusive: 29.1 µM [cytotoxic, single point]

**Q.** With `O=C1N[C@@H](Cc2c[nH]c3ccccc23)COC(=O)[C@H](Cc2ccc(F)cc2)C/C=C\C[C@@H]1CC(=O)N(CCO)Cc1ccccc1` as the compound, how does the Potency read?
**A.** inconclusive: 29.1 µM [cytotoxic, single point]

**Q.** For `COc1ccc(OC)c(NC(=O)CC2C(=O)NCCN2C(=O)C(F)(F)F)c1` (configuration not stated), which “activity change, negative = cytotoxic” value is on record?
**A.** inactive: -6.48%

**Q.** With `COc1ccc(S(=O)(=O)N2CN(Cc3ccco3)c3nc4ccccc4nc32)cc1` as the compound, how does the “activity change, negative = cytotoxic” value read?
**A.** inactive: -31.3%

**Q.** For `O=C(C=Cc1cccc(Cl)c1)c1ccccc1`, which Potency is on record?
**A.** inconclusive: 29.1 µM [cytotoxic, single point]

**Q.** For `COc1ccc(NC(=O)c2oc3ccccc3c2NC(=O)C23CC4CC(CC(C4)C2)C3)c(OC)c1`, which Potency is on record?
**A.** active: 23.1 µM

**Q.** For `c1ccc(N2CCN(c3nc(NCc4ccco4)c4ccccc4n3)CC2)cc1`, which Potency is on record?
**A.** inconclusive: 29.1 µM [cytotoxic, single point]

**Q.** For `COc1ccc2c(c1)c(CC(=O)Nc1ccc(C(C)=O)cc1)c(C)n2C(=O)c1ccc(Cl)cc1`, which “activity change, negative = cytotoxic” value is on record?
**A.** inactive: 0%

**Q.** With `OC(c1ccccc1)c1nc2ccccc2s1` (configuration not stated) as the compound, how does the Potency read?
**A.** inconclusive: 58 µM [cytotoxic, full curve, poor fit]

**Q.** For `CCOC(=O)c1cnn(-c2ccc(Cl)cc2)c1C1CCN(C(=O)OC(C)(C)C)CC1`, which Potency is on record?
**A.** inconclusive: 29.1 µM [cytotoxic, single point]

**Q.** With `CCc1cccc(CC)c1NC(=O)C(Cc1ccccc1)NS(=O)(=O)c1cccc2nsnc12` (configuration not stated) as the compound, how does the “activity change, negative = cytotoxic” value read?
**A.** inactive: -3.3%

**Q.** For `O=C(CCNC(=O)N1CC(=O)Nc2ccccc21)Nc1cccc(Cl)c1`, which “activity change, negative = cytotoxic” value is on record?
**A.** inactive: 2.96%

**Q.** Which Potency does the source give for `Cc1ccc(-c2nnc(SCC(=O)N/N=C/c3c(C)nn(-c4ccccc4)c3C)n2-c2ccccc2)cc1` here?
**A.** inconclusive: 29.1 µM [cytotoxic, single point]

**Q.** Which Potency does the source give for `O=c1oc2ccccc2cc1-c1csc(Nc2ccc(O)cc2)n1` here?
**A.** inconclusive: 32.6 µM [cytotoxic, single point]

**Q.** For `O=C(N/N=C/c1cc(Br)ccc1O)C(=O)Nc1ccccc1OC(F)(F)C(F)F`, which Potency is on record?
**A.** inconclusive: 35.5 µM [cytotoxic, single point]

**Q.** Which “activity change, negative = cytotoxic” value does the source give for `CCOC(=O)Cn1nc(-c2ccc(Cl)cc2)ccc1=O` here?
**A.** inactive: 0.181%

**Q.** For `Clc1ccccc1NN(Cc1ccncc1)c1ccccc1Cl`, which Potency is on record?
**A.** inconclusive: 11.6 µM [cytotoxic, partial curve, poor fit]

**Q.** With `COc1ccc(Cn2c(SCc3cc(C)ccc3C)nc3cc(OC)c(OC)cc3c2=N)cc1` as the compound, how does the Potency read?
**A.** inconclusive: 25.1 µM [cytotoxic, single point]

**Q.** For `CCOc1ccc(CN(C)CC(=O)Nc2ccccc2C(=O)NC2CC2)cc1`, which “activity change, negative = cytotoxic” value is on record?
**A.** inactive: 2.09%

**Q.** Which Potency does the source give for `O=C(NNC(=O)c1cnccc1C(F)(F)F)c1ccccc1` here?
**A.** inconclusive: 2.91 µM [rising, full curve, poor fit]

**Q.** For `S=C(NCC1CCCO1)N1CCN(c2nc(-c3ccc(Cl)cc3)cs2)CC1` (configuration not stated), which Potency is on record?
**A.** inconclusive: 29.1 µM [cytotoxic, single point]

**Q.** Which Potency does the source give for `CCOc1cc(CNc2ccccc2)cc(Br)c1OCc1ccc(F)cc1` here?
**A.** inconclusive: 20.6 µM [cytotoxic, single point]

**Q.** With `COc1ccc2c(c1)CCc1cn3nc(C)cc3nc1-2` as the compound, how does the activity change, negative = cytotoxic read?
**A.** inconclusive: 7.51%

**Q.** Which Potency does the source give for `Cc1cccc(N2CCN(C(=O)c3cn4ccccc4n3)CC2C)c1` (configuration not stated) here?
**A.** inconclusive: 29.1 µM [cytotoxic, single point]

**Q.** For `CC(C)CCNS(=O)(=O)c1ccc(N2CCCCS2(=O)=O)cc1`, which Potency is on record?
**A.** inconclusive: 5.17 µM [cytotoxic, partial curve, poor fit]

**Q.** For `COc1ccc(-n2cnc3cc(NCc4ccccn4)ccc32)cc1`, which “activity change, negative = cytotoxic” value is on record?
**A.** inactive: -9.07%

**Q.** With `COc1ccc(/C=N/Nc2cc(N3CCCC3)nc(N3CCCC3)n2)cc1` as the compound, how does the Potency read?
**A.** inconclusive: 29.1 µM [cytotoxic, single point]

**Q.** For `CC1CCN(c2oc(-c3ccc(F)cc3)nc2C#N)CC1`, which activity change, negative = cytotoxic is on record?
**A.** inconclusive: -95.8%

**Q.** For `COc1ccc(-n2nc([N+](=O)[O-])c(=NCCc3ccc(C)cc3)n2O)cc1`, which “activity change, negative = cytotoxic” value is on record?
**A.** inactive: 6.71%

**Q.** For `CC1NS(=O)(=O)c2cc([N+](=O)[O-])ccc21` (configuration not stated), which “activity change, negative = cytotoxic” value is on record?
**A.** inactive: 7.3%

**Q.** For `Cc1ccc(NC(=O)CN(c2ccc(Cl)cc2)S(=O)(=O)c2cc([N+](=O)[O-])ccc2Cl)cc1`, which Potency is on record?
**A.** inconclusive: 29.1 µM [cytotoxic, single point]

**Q.** With `CC(=O)C1=CCC(c2cccc3ccccc23)N(S(=O)(=O)c2ccc(C)cc2)C1` (configuration not stated) as the compound, how does the Potency read?
**A.** inconclusive: 23.1 µM [cytotoxic, single point]

**Q.** Which “activity change, negative = cytotoxic” value does the source give for `CCOC(=O)C1=C(c2ccccc2)OC(N)=C(C#N)C1C1CCCCC1` (configuration not stated) here?
**A.** inactive: -4.81%

**Q.** With `c1ccc(C[n+]2ccc3ccccc3c2)cc1` as the compound, how does the Potency read?
**A.** inconclusive: 29.1 µM [cytotoxic, single point]

**Q.** Which “activity change, negative = cytotoxic” value does the source give for `NC(=O)C1CCN(c2ncc(-c3ccc4c(c3)OCCO4)s2)CC1` here?
**A.** inactive: 49.9%
